Test results taken from US12729225B2, “Non-canonical SWI/SNF complex and uses thereof” (Dana-Farber Cancer Institute, Inc., priority 2018, dated 2026).

B1: WDR75 (protein, UniProt Q8IWA0 1-830, looked up)
WD repeat-containing protein …: MVEEENIRVVRCGGSELNFRRAVFSADSKYIFCVSGDFVKVYSTVTEECVHILHGHRNLVTGIQLNPNNHLQLYSCSLDGTIKLWDYIDGILIKTFIVGCKLHALFTLAQAEDSVFVIVNKEKPDIFQLVSVKLPKSSSQEVEAKELSFVLDYINQSPKCIAFGNEGVYVAAVREFYLSVYFFKKKTTSRFTLSSSRNKKHAKNNFTCVACHPTEDCIASGHMDGKIRLWRNFYDDKKYTYTCLHWHHDMVMDLAFSVTGTSLLSGGRESVLVEWRDATEKNKEFLPRLGATIEHISVSPAGDLFCTSHSDNKIIIIHRNLEASAVIQGLVKDRSIFTGLMIDPRTKALVLNGKPGHLQFYSLQSDKQLYNLDIIQQEYINDYGLIQIELTKAAFGCFGNWLATVEQRQEKETELELQMKLWMYNKKTQGFILNTKINMPHEDCITALCFCNAEKSEQPTLVTASKDGYFKVWILTDDSDIYKKAVGWTCDFVGSYHKYQATNCCFSEDGSLLAVSFEEIVTIWDSVTWELKCTFCQRAGKIRHLCFGRLTCSKYLLGATENGILCCWNLLSCALEWNAKLNVRVMEPDPNSENIAAISQSSVGSDLFVFKPSEPRPLYIQKGISREKVQWGVFVPRDVPESFTSEAYQWLNRSQFYFLTKSQSLLTFSTKSPEEKLTPTSKQLLAEESLPTTPFYFILGKHRQQQDEKLNETLENELVQLPLTENIPAISELLHTPAHVLPSAAFLCSMFVNSLLLSKETKSAKEIPEDVDMEEEKESEDSDEENDFTEKVQDTSNTGLGEDIIHQLSKSEEKELRKFRKIDYSWIAAL
B2: CWC22 (protein, UniProt Q9HCG8 1-908, looked up)
Pre-mRNA-splicing factor …: MKSSVAQIKPSSGHDRRENLNSYQRNSSPEDRYEEQERSPRDRDYFDYSRSDYEHSRRGRSYDSSMESRNRDREKRRERERDTDRKRSRKSPSPGRRNPETSVTQSSSAQDEPATKKKKDELDPLLTRTGGAYIPPAKLRMMQEQITDKNSLAYQRMSWEALKKSINGLINKVNISNISIIIQELLQENIVRGRGLLSRSVLQAQSASPIFTHVYAALVAIINSKFPQIGELILKRLILNFRKGYRRNDKQLCLTASKFVAHLINQNVAHEVLCLEMLTLLLERPTDDSVEVAIGFLKECGLKLTQVSPRGINAIFERLRNILHESEIDKRVQYMIEVMFAVRKDGFKDHPIILEGLDLVEEDDQFTHMLPLEDDYNPEDVLNVFKMDPNFMENEEKYKAIKKEILDEGDTDSNTDQDAGSSEEDEEEEEEEGEEDEEGQKVTIHDKTEINLVSFRRTIYLAIQSSLDFEECAHKLLKMEFPESQTKELCNMILDCCAQQRTYEKFFGLLAGRFCMLKKEYMESFEGIFKEQYDTIHRLETNKLRNVAKMFAHLLYTDSLPWSVLECIKLSEETTTSSSRIFVKIFFQELCEYMGLPKLNARLKDETLQPFFEGLLPRDNPRNTRFAINFFTSIGLGGLTDELREHLKNTPKVIVAQKPDVEQNKSSPSSSSSASSSSESDSSDSDSDSSDSSSESSSEESDSSSISSHSSASANDVRKKGHGKTRSKEVDKLIRNQQTNDRKQKERRQEHGHQETRTERERRSEKHRDQNSSGSNWRDPITKYTSDKDVPSERNNYSRVANDRDQEMHIDLENKHGDPKKKRGERRNSFSENEKHTHRIKDSENFRRKDRSKSKEMNRKHSGSRSDEDRYQNGAERRWEKSSRYSEQSRESKKNQDRRREKSPAKQK
B3: NOC4L (protein, UniProt Q9BVI4 1-516, looked up)
Nucleolar complex protein 4 …: MEREPGAAGVRRALGRRLEAVLASRSEANAVFDILAVLQSEDQEEIQEAVRTCSRLFGALLERGELFVGQLPSEEMVMTGSQGATRKYKVWMRHRYHSCCNRLGELLGHPSFQVKELALSALLKFVQLEGAHPLEKSKWEGNYLFPRELFKLVVGGLLSPEEDQSLLLSQFREYLDYDDTRYHTMQAAVDAVARVTGQHPEVPPAFWNNAFTLLSAVSLPRREPTVSSFYVKRAELWDTWKVAHLKEHRRVFQAMWLSFLKHKLPLSLYKKVLLIVHDAILPQLAQPTLMIDFLTRACDLGGALSLLALNGLFILIHKHNLEYPDFYRKLYGLLDPSVFHVKYRARFFHLADLFLSSSHLPAYLVAAFAKRLARLALTAPPEALLMVLPFICNLLRRHPACRVLVHRPHGPELDADPYDPGEEDPAQSRALESSLWELQALQRHYHPEVSKAASVINQALSMPEVSIAPLLELTAYEIFERDLKKKGPEPVPLEFIPAQGLLGRPGELCAQHFTLS
B4: CIRH1A (protein, UniProt Q969X6 1-686, looked up)
U3 small nucleolar …: MGEFKVHRVRFFNYVPSGIRCVAYNNQSNRLAVSRTDGTVEIYNLSANYFQEKFFPGHESRATEALCWAEGQRLFSAGLNGEIMEYDLQALNIKYAMDAFGGPIWSMAASPSGSQLLVGCEDGSVKLFQITPDKIQFERNFDRQKSRILSLSWHPSGTHIAAGSIDYISVFDVKSGSAVHKMIVDRQYMGVSKRKCIVWGVAFLSDGTIISVDSAGKVQFWDSATGTLVKSHLIANADVQSIAVADQEDSFVVGTAEGTVFHFQLVPVTSNSSEKQWVRTKPFQHHTHDVRTVAHSPTALISGGTDTHLVFRPLMEKVEVKNYDAALRKITFPHRCLISCSKKRQLLLFQFAHHLELWRLGSTVATGKNGDTLPLSKNADHLLHLKTKGPENIICSCISPCGSWIAYSTVSRFFLYRLNYEHDNISLKRVSKMPAFLRSALQILFSEDSTKLFVASNQGALHIVQLSGGSFKHLHAFQPQSGTVEAMCLLAVSPDGNWLAASGTSAGVHVYNVKQLKLHCTVPAYNFPVTAMAIAPNTNNLVIAHSDQQVFEYSIPDKQYTDWSRTVQKQGFHHLWLQRDTPITHISFHPKRPMHILLHDAYMFCIIDKSLPLPNDKTLLYNPFPPTNESDVIRRRTAHAFKISKIYKPLLFMDLLDERTLVAVERPLDDIIAQLPPPIKKKKFGT
B5: RCN2 (protein, UniProt Q14257 23-317, looked up)
Reticulocalbin-2: GKAEELHYPLGERRSDYDREALLGVQEDVDEYVKLGHEEQQKRLQAIIKKIDLDSDGFLTESELSSWIQMSFKHYAMQEAKQQFVEYDKNSDDTVTWDEYNIQMYDRVIDFDENTALDDAEEESFRKLHLKDKKRFEKANQDSGPGLSLEEFIAFEHPEEVDYMTEFVIQEALEEHDKNGDGFVSLEEFLGDYRWDPTANEDPEWILVEKDRFVNDYDKDNDGRLDPQELLPWVVPNNQGIAQEEALHLIDEMDLNGDKKLSEEEILENPDLFLTSEATDYGRQLHDDYFYHDEL
B6: NUBPL (protein, UniProt Q8TB37 39-319, looked up)
Iron-sulfur cluster transfer …: GAGSETLKQRRTQIMSRGLPKQKPIEGVKQVIVVASGKGGVGKSTTAVNLALALAANDSSKAIGLLDVDVYGPSVPKMMNLKGNPELSQSNLMRPLLNYGIACMSMGFLVEESEPVVWRGLMVMSAIEKLLRQVDWGQLDYLVVDMPPGTGDVQLSVSQNIPITGAVIVSTPQDIALMDAHKGAEMFRRVHVPVLGLVQNMSVFQCPKCKHKTHIFGADGARKLAQTLGLEVLGDIPLHLNIREASDTGQPIVFSQPESDEAKAYLRIAVEVVRRLPSPSE
B7: TMEM33 (protein, UniProt P57088 2-247, looked up)
Transmembrane protein 33: ADTTPNGPQGAGAVQFMMTNKLDTAMWLSRLFTVYCSALFVLPLLGLHEAASFYQRALLANALTSALRLHQRLPHFQLSRAFLAQALLEDSCHYLLYSLIFVNSYPVTMSIFPVLLFSLLHAATYTKKVLDARGSNSLPLLRSVLDKLSANQQNILKFIACNEIFLMPATVFMLFSGQGSLLQPFIYYRFLTLRYSSRRNPYCRTLFNELRIVVEHIIMKPACPLFVRRLCLQSIAFISRLAPTVP

test system: mSWI/SNF complexes; assay: mSWI/SNF complex purification with HA-tagged baits and mass spectrometry (peptide counts); set-up: species or system human; settings: 293_HA-BRD7 bait purification, mass spectrometry; total peptide count per identified protein

Total, 1:
B1
B2
B3
B4
B5
B6
B7

same assay, conditions: 293_HA-BRD7 bait purification, mass spectrometry; unique peptide count per identified protein

Unique, 1:
B1
B2
B3
B4
B5
B6
B7
